Source: PubChem BioAssay AID686937 (Drosophila RNAi Screening Center, 2013)

- Purpose: 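Genes in the fly needed for secretion of protein constitutively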 (primary screen)
- System: Drosophila S2 cells expressing secreted horseradish peroxidase
- Reagent: long dsRNA against Drosophila genes
- Time to read-out: about 5.5 days (5 days dsRNA, then 12 h reporter induction)
- Challenge: reporter expression induced after 5 days of dsRNA, read 12 h later; inducer not stated
- Read-out: 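After 5 days of dsRNA and 12 h of reporter induction, medium peroxidase read by chemiluminescence and scored as per-plate z-score; higher values mean more reporter released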
- Direction: z-score: higher = more reporter secreted into medium
The screen tested about 23,000 reagents; this is a random part of those with a known target gene and a result. 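Reduced-secretion tags in replicate 1 do not always agree with the z-scores; no criterion for assigning the tags was given.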 Names joined by + are all predicted targets of the reagent. Further read-outs or replicates are left out here. Not given: the amount of reagent.

| gene | dsRNA | z-score, replicate 1 | z-score, replicate 2 | z-score, replicate 3 | z-score, replicate 4 |
| --- | --- | --- | --- | --- | --- |
| CG41520 (GeneID 5740294) | DRSC21102 | 0.42 | 0.35 | – | – |
| CG41520 (GeneID 5740294) | DRSC21103 | 0.02 | 0.25 | – | – |
| CG10194 (GeneID 35231) | DRSC02025 | 0.27 | 0.13 | – | – |
| CG15082 (GeneID 37173) | DRSC06513 | 0.3 | -0.07 | – | – |
| CG43191 (GeneID 12798408) | DRSC05326 | 0.24 | 0.12 | – | – |
| Osi8 (GeneID 40762) | DRSC12277 | 0.24 | 0.49 | – | – |
| Twdlalpha (GeneID 326223) | DRSC19914 | 0.3 | 0.5 | – | – |
| PI31 (GeneID 36277) | DRSC07306 | 0.49 | 0.29 | – | – |
| ord (GeneID 37687) | DRSC04706 | 0.33 | 0.44 | – | – |
| beat-Ia (GeneID 34947) | DRSC03489 | 0.73 | 0.23 | – | – |
| CG12708 (GeneID 32502) | DRSC19490 | 0.11 | 0.13 | – | – |
| l(2)gl (GeneID 33156) | DRSC00825 | 0.57 | 0.29 | – | – |
| Fkbp14 (GeneID 37449) | DRSC04615 | 0.11 | 0.04 | – | – |
| Nup205 (GeneID 33002) | DRSC19432 | -1.7 | -0.48 | – | – |
| CG15390 (GeneID 33422) | DRSC00404 | -0.03 | 0.15 | – | – |
| CG11899 (GeneID 46391) | DRSC16656 | 0.38 | 0.24 | – | – |
| Fntb (GeneID 41989) | DRSC15244 | 0.36 | 0.27 | – | – |
| DIP-epsilon (GeneID 7354433) | DRSC00932 | 0.7 | 0.45 | 0.14 | 0.73 |
| DIP-epsilon (GeneID 7354433) | DRSC02313 | 0.05 | -0.44 | – | – |
| CG42505 + CG42504 + CG31358 | DRSC15235 | 0.25 | 0.26 | – | – |
| CG42505 + CG42504 + CG31358 | DRSC15308 | -0.04 | 0.41 | – | – |
| CG42505 + CG42504 + CG31358 | DRSC15309 | 0.05 | 0.38 | – | – |
| CG12674 (GeneID 33384) | DRSC00348 | 0.18 | -0.01 | – | – |
| mrn (GeneID 39688) | DRSC10913 | -1.79 | -1.7 | – | – |
| Dgkepsilon (GeneID 36408) | DRSC07399 | 0.13 | 0.34 | – | – |
| speck (GeneID 37867) | DRSC04608 | 0.11 | 0.12 | – | – |
| nej (GeneID 43856) | DRSC18006 | -3.52 | -3.23 | – | – |
| nej (GeneID 43856) | DRSC18801 | -3.61 | -2.53 | – | – |
| MED6 (GeneID 44728) | DRSC16500 | -3.35 | -2.91 | – | – |
| IKKbeta (GeneID 44432) | DRSC16714 | 0.47 | 0.49 | – | – |
| CG6216 (GeneID 39257) | DRSC10606 | 0.08 | 0.31 | – | – |
| CG11929 (GeneID 33668) | DRSC00339 | 0.48 | -0.11 | – | – |
| Ptp4E (GeneID 31425) | DRSC18701 | 0.75 | 0.57 | – | – |
| CG18605 (GeneID 37189) | DRSC06772 | 0.39 | 0.66 | – | – |
| CG15534 (GeneID 43613) | DRSC15070 | 0.44 | 0.73 | – | – |
| CycK (GeneID 49816) | DRSC03714 | 0.54 | 0.42 | – | – |
| CG11369 (GeneID 31675) | DRSC17779 | 0.31 | 0.44 | – | – |
| CG42807 (GeneID 36511) | DRSC06966 | 0.45 | 0.37 | – | – |
| put (GeneID 41772) | DRSC17039 | 0.03 | 0.22 | – | – |
| CG7201 (GeneID 38929) | DRSC10786 | 0.31 | 0.44 | – | – |
| cerv (GeneID 32492) | DRSC19681 | 0 | 0.08 | – | – |
| CG1231 (GeneID 38060) | DRSC08267 | 0.65 | 0.33 | – | – |
| CG1418 (GeneID 36035) | DRSC06447 | 0.11 | 0.13 | – | – |
| CG32564 (GeneID 326222) | DRSC19933 | -0.59 | -0.19 | – | – |
| CG13527 (GeneID 37615) | DRSC04169 | 0.4 | 0.32 | – | – |
| Cln7 (GeneID 38813) | DRSC11005 | 0.39 | 0.32 | – | – |
| CG31741 (GeneID 35079) | DRSC02887 | 0.1 | 0.05 | – | – |
| MTA1-like (GeneID 40693) | DRSC12382 | 0.34 | -0.22 | – | – |
| MTA1-like (GeneID 40693) | DRSC22022 | -0.99 | -0.08 | – | – |
| SRPK (GeneID 36706) | DRSC07090 | 0.21 | 0.38 | – | – |
| crok (GeneID 34646) | DRSC02593 | 0.31 | 0.45 | – | – |
| crok (GeneID 34646) | DRSC21349 | 0.2 | -0.64 | – | – |
| Vha36-2 (GeneID 36328) | DRSC06294 | 0.09 | 0.22 | – | – |
| CG5721 (GeneID 37084) | DRSC06945 | 0.07 | 0.35 | – | – |
| Lim3 (GeneID 35184) | DRSC02475 | 0.41 | 0.54 | – | – |
| Lim3 (GeneID 35184) | DRSC03363 | -3.23 | -1.2 | – | – |
| Lim3 (GeneID 35184) | DRSC22183 | -0.69 | -1.82 | – | – |
| Lim3 (GeneID 35184) | DRSC22650 | -0.2 | 0.36 | – | – |
| CG9547 (GeneID 33911) | DRSC03260 | 0.27 | 0.16 | – | – |
| Eato (GeneID 34783) | DRSC01891 | 0.32 | 0.38 | – | – |
| Eato (GeneID 34783) | DRSC03061 | 0.1 | 0.15 | – | – |
| Or49b (GeneID 36413) | DRSC07494 | 0.34 | 0.45 | – | – |
| CG46298 (GeneID 36091) | DRSC06222 | -0.78 | -0.35 | – | – |
| Obp99b (GeneID 43497) | DRSC16264 | -0.47 | -0.68 | – | – |
| rig (GeneID 37335) | DRSC06053 | 0.23 | 0.38 | – | – |
| rig (GeneID 37335) | DRSC06400 | 0.32 | 0.15 | – | – |
| Cyp6g2 (GeneID 36317) | DRSC07387 | 0.21 | 0.1 | – | – |
| CG1698 (GeneID 36006) | DRSC06640 | 0.46 | 0.47 | – | – |
| Nt5b (GeneID 32822) | DRSC19976 | 0.3 | 0.47 | – | – |
| Nt5b (GeneID 32822) | DRSC19977 | 0.3 | 0.51 | – | – |
| Nt5b (GeneID 32822) | DRSC19978 | 0.22 | 0.44 | – | – |
| Nt5b (GeneID 32822) | DRSC22588 | -0.17 | -0.22 | – | – |
| Drl-2 (GeneID 36436) | DRSC05393 | 0.32 | 0.16 | – | – |
| Drl-2 (GeneID 36436) | DRSC06155 | 0.18 | 0.23 | – | – |
| Drl-2 (GeneID 36436) | DRSC06858 | -0.57 | -0.4 | – | – |
| Atox1 (GeneID 326216) | DRSC22416 | 0.35 | 0.21 | – | – |
| Prim1 (GeneID 38942) | DRSC11137 | 0.1 | 0.18 | – | – |
| uzip (GeneID 38002) | DRSC04722 | 0.23 | -0.07 | – | – |
| CG2901 (GeneID 31338) | DRSC18239 | 0.53 | 0.68 | – | – |
| CG13133 (GeneID 34342) | DRSC02230 | -0.17 | 0.57 | – | – |
| Nepl3 (GeneID 326172) | DRSC02681 | 0.21 | -0.05 | – | – |
| Drsl1 (GeneID 326207) | DRSC22490 | -0.18 | 0.9 | – | – |

Entries above whose target name begins with D or d:
| gene | dsRNA | z-score, replicate 1 | z-score, replicate 2 | z-score, replicate 3 | z-score, replicate 4 |
| --- | --- | --- | --- | --- | --- |
| DIP-epsilon (GeneID 7354433) | DRSC00932 | 0.7 | 0.45 | 0.14 | 0.73 |
| DIP-epsilon (GeneID 7354433) | DRSC02313 | 0.05 | -0.44 | – | – |
| Dgkepsilon (GeneID 36408) | DRSC07399 | 0.13 | 0.34 | – | – |
| Drl-2 (GeneID 36436) | DRSC05393 | 0.32 | 0.16 | – | – |
| Drl-2 (GeneID 36436) | DRSC06155 | 0.18 | 0.23 | – | – |
| Drl-2 (GeneID 36436) | DRSC06858 | -0.57 | -0.4 | – | – |
| Drsl1 (GeneID 326207) | DRSC22490 | -0.18 | 0.9 | – | – |
